One experiment addresses T1, FLAG-tagged ZIP6 (UniProt Q13433).
T1 sequence: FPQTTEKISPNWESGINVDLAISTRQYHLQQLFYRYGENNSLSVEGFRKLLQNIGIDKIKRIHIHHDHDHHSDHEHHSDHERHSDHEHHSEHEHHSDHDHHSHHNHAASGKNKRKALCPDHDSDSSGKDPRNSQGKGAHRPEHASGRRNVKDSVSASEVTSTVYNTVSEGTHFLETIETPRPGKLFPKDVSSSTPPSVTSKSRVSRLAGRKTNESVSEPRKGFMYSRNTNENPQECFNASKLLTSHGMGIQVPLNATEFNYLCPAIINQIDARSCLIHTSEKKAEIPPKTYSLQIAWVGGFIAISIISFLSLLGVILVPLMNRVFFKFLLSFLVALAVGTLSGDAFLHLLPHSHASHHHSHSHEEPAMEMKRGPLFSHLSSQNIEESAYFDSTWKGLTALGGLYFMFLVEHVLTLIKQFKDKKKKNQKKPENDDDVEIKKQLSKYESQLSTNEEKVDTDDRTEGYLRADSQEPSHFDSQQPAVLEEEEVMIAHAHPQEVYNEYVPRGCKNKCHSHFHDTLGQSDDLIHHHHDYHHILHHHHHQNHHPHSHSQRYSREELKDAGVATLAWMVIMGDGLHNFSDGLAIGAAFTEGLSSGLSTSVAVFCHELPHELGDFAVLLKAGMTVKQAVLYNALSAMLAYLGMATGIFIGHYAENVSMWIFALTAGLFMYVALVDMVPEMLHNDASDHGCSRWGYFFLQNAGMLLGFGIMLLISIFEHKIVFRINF
The experiment can be described thus: co-IP; tagged plasmids cotransfected into MIN6 cells; anti-FLAG coimmunoprecipitation; 2.5% input and 50% eluent loaded; immunoblot with anti-HA or anti-V5.

Amino acid sequences for entries named in this document (tags omitted). Residues count along the entry.
UniProt P43220, residues 24-463: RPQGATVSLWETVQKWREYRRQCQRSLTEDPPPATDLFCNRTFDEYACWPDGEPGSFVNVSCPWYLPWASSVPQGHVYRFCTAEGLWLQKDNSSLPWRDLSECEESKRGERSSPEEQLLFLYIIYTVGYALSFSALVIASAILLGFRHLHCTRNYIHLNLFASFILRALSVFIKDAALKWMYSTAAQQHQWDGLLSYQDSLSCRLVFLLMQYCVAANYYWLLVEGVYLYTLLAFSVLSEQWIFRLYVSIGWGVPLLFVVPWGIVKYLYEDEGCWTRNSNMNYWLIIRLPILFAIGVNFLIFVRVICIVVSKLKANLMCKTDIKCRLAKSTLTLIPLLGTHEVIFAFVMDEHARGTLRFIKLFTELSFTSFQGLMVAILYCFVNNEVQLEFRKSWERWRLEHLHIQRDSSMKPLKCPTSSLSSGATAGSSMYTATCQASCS

Another experiment has as its target FLAG-tagged GLP-1R (UniProt P43220). The description is as above.

These are yes or no findings as the source states them, for the method shown. In cells and extracts the contact can be indirect. Some results given as binding are weak or reduced against the parent protein; the word gives no strength. Tags and fused reporters may be left off the sequences shown.

In the case of “His-V5-tagged GLP-1R (from UniProt P43220 24-463) (receptor)”, the binding result with FLAG-tagged ZIP6 is “binds”.

B1: HA-tagged ZIP7 (protein, UniProt Q92504 1-469)
chain: MARGLGAPHWVAVGLLTWATLGLLVAGLGGHDDLHDDLQEDFHGHSHRHSHEDFHHGHSHAHGHGHTHESIWHGHTHDHDHGHSHEDLHHGHSHGYSHESLYHRGHGHDHEHSHGGYGESGAPGIKQDLDAVTLWAYALGATVLISAAPFFVLFLIPVESNSPRHRSLLQILLSFASGGLLGDAFLHLIPHALEPHSHHTLEQPGHGHSHSGQGPILSVGLWVLSGIVAFLVVEKFVRHVKGGHGHSHGHGHAHSHTRGSHGHGRQERSTKEKQSSEEEEKETRGVQKRRGGSTVPKDGPVRPQNAEEEKRGLDLRVSGYLNLAADLAHNFTDGLAIGASFRGGRGLGILTTMTVLLHEVPHEVGDFAILVQSGCSKKQAMRLQLLTAVGALAGTACALLTEGGAVGSEIAGGAGPGWVLPFTAGGFIYVATVSVLPELLREASPLQSLLEVLGLLGGVIMMVLIAHLE
As to B1, in the experiment with FLAG-tagged GLP-1R, the binding entry is reported as “binds”.

Source of the values: publication PMC4513131.
